Drawing on PubChem BioAssay AID330 (DTP/NCI, 2004), this text covers T/C and survivor count for 23 molecules.

The test system of this assay is P388 leukemia ip, CD2F1 mice, survival T/C. The assay can be described thus: NCI In Vivo Anticancer Drug Screen. Data for tumor model P388 Leukemia (intraperitoneal) in CD2F1 (CDF1) mice. The conditions noted are these: T/C endpoint: median survival time, higher T/C = longer survival.
Setting [1] is: dose: 200.0 mg/kg/injection, schedule: Q01DX009 (ip), vehicle: saline.
Setting [2] is: dose: 25.0 mg/kg/injection, schedule: Q01DX009 (ip), vehicle: saline with Tween-80.
The mark [3] stands for this setting: dose: 50.0 mg/kg/injection, schedule: Q01DX009 (ip), vehicle: saline with Tween-80.
Where [4] appears, read: dose: 100.0 mg/kg/injection, schedule: Q01DX009 (ip), vehicle: saline with Tween-80.
Where [5] appears, read: dose: 200.0 mg/kg/injection, schedule: Q01DX009 (ip), vehicle: saline with Tween-80.
The mark [6] stands for this setting: dose: 6.25 mg/kg/injection, schedule: Q01DX009 (ip), vehicle: Klucel (hydroxypropylcellulose) (HPC).
Setting [7] is: dose: 12.5 mg/kg/injection, schedule: Q01DX009 (ip), vehicle: Klucel (hydroxypropylcellulose) (HPC).
Where [8] appears, read: dose: 50.0 mg/kg/injection, schedule: Q01DX009 (ip), vehicle: Klucel (hydroxypropylcellulose) (HPC).
The mark [9] stands for this setting: dose: 200.0 mg/kg/injection, schedule: Q01DX005 (ip), vehicle: Klucel (hydroxypropylcellulose) (HPC).
Setting [10] is: dose: 240.0 mg/kg/injection, schedule: Q01DX005 (ip), vehicle: Klucel (hydroxypropylcellulose) (HPC).
Where [11] appears, read: dose: 200.0 mg/kg/injection, schedule: Q04DX003 (ip), vehicle: saline with Tween-80.
Where [12] appears, read: dose: 400.0 mg/kg/injection, schedule: Q04DX003 (ip), vehicle: saline with Tween-80.
[13] abbreviates: dose: 25.0 mg/kg/injection, schedule: Q01DX009 (ip), vehicle: Klucel (hydroxypropylcellulose) (HPC).
The mark [14] stands for this setting: dose: 100.0 mg/kg/injection, schedule: Q04DX003 (ip), vehicle: saline.
Where [15] appears, read: dose: 200.0 mg/kg/injection, schedule: Q04DX003 (ip), vehicle: saline.
Setting [16] is: dose: 400.0 mg/kg/injection, schedule: Q04DX003 (ip), vehicle: saline.

The list shows only some results of the screen, not a fair sample: it gathers tests that were run many times, whatever their T/C, doses with no T/C, and many T/C values between a quarter and a half above the control. Further doses and runs are listed elsewhere. T/C gives the treated animals as a percentage of the vehicle group. Some doses have a count of surviving animals in place of a T/C: the source files T/C as zero there, which appears to mark a toxic dose or a test without result, not a measured value. Some doses without a T/C left all or most animals alive at the check, yet need not have been tolerated: survival well below the control is almost never listed, so the zero probably covers shortened survival too. Survivors were counted at the toxicity check, usually on the fifth day, unless a day is given; later deaths do not show. Schedules are NCI's codes, taken here to give the interval after Q, in days (D) or hours (H), and the number of doses after X. Some entries hold several experiments; the values are given in rising order. For survival time, the PubChem record calls one and a half times the control and up active, and a quarter to a half above the control has no call in these data; cut-offs in other NCI protocols can differ.

`Cc1ncc(CSC(=N)N)n1Cc1ccccc1`: the T/C was 125 % of control (dose: 13.0 mg/kg/injection, schedule: Q01DX009 (ip), vehicle: saline); 132 % of control (dose: 20.0 mg/kg/injection, schedule: Q01DX009 (ip), vehicle: saline); 128 % of control (dose: 50.0 mg/kg/injection, schedule: Q01DX009 (ip), vehicle: saline). The survivor count is 1 of 6 (dose: 100.0 mg/kg/injection, schedule: Q01DX009 (ip), vehicle: saline) and 0 of 6 under setting [1].

Regarding `CC(=O)[O][Hg][CH]1C2CC3C(C2OC(C)=O)C31` (stereo not given), the survivor count is 6 of 6 under setting [2], 5 of 6 under setting [3], 0 of 6 under setting [4] and 0 of 6 under setting [5].

Regarding `CC(=O)OC1CC(OC(C)=O)C2(C)CC3=C(O)C(=O)OC3CC(C)C12` (stereo not given), the survivor count (dose: 400.0 mg/kg/injection, schedule: Q04DX002 (ip), vehicle: saline with Tween-80) is given as 1 of 6.

For `Cn1c(=O)c2c(nnc(-c3ccc(Cl)c(Cl)c3)[n+]2[O-])n(C)c1=O`, the survivor count runs as follows: (dose: 50.0 mg/kg/injection, schedule: Q01DX001 (ip), vehicle: Klucel (hydroxypropylcellulose) (HPC)) 1 of 6; (dose: 100.0 mg/kg/injection, schedule: Q01DX001 (ip), vehicle: Klucel (hydroxypropylcellulose) (HPC)) 2 of 6.

Consider `CS(=O)(=O)OCC#CCOS(C)(=O)=O`, for which the T/C under setting [6] is 133 and 140 % of control; the T/C under setting [7] is 140 and 143 % of control. Also, under setting [8], the survivor count was 1 of 6.

For `CSC(=S)N/N=C(\c1ccccc1)c1ccccn1`, the survivor count is listed as 6 of 6 (dose: 3.12 mg/kg/injection, schedule: Q01DX009 (ip), vehicle: saline with Tween-80); 6 of 6 under setting [2]; 6 of 6 under setting [3]; 6 of 6 under setting [4]; 2 of 6 under setting [5].

In the case of `COc1ccc(Nc2ncnc3ccccc23)cc1CN(CCCl)CCCl`, the survivor count (dose: 400.0 mg/kg/injection, schedule: Q01DX001 (ip), vehicle: Klucel (hydroxypropylcellulose) (HPC)) was 4 of 6.

Turning to `C=CC(=O)NC(N)=NC#N`, the survivor count is recorded as 0 of 6 (dose: 100.0 mg/kg/injection, schedule: Q01DX005 (ip), vehicle: Klucel (hydroxypropylcellulose) (HPC)) and 0 of 6 under setting [9].

Regarding `FC(F)(F)c1ccc(-c2nn[nH]n2)cc1`, the survivor count under setting [10] is recorded as 0 of 6.

Consider `NC(CCSCc1ccc(N(CCCl)CCCl)cc1)C(=O)O` (stereo not given), for which the survivor count reads like this: under setting [4], 3 of 6; under setting [11], 6 of 6; under setting [12], 3 of 6.

With `CCN1c2ccccc2S(=O)(=O)n2c(/C=C/c3ccc(OC)cc3)nnc21`, the survivor count (dose: 400.0 mg/kg/injection, schedule: Q01DX001 (ip), vehicle: saline with Tween-80) is 6 of 6.

Consider `COP(=O)(OC)C(=[N+]=[N-])c1ccccc1`, for which, under “dose: 25.0 mg/kg/injection, schedule: Q01DX009 (ip), vehicle: water”, the survivor count was 6 of 6.

As to `Cc1ccc2ccc3ccc(CCl)nc3c2n1`, the survivor count (dose: 25.0 micromoles/kg, schedule: Q01DX005 (ip), vehicle: other) was 4 of 6.

For the molecule `COc1c(OCC(O)CN2CCCCC2)c2c(C)coc2c2ccoc12` (stereo not given), the survivor count under setting [9] is 0 of 6.

With `Cc1cccc(Nc2c(N)nc(N)nc2N)c1`, the survivor count is given as 2 of 6 under setting [4], 0 of 6 under setting [11] and 0 of 6 under setting [12].

In the case of `CCOC(=O)NCCCCC([NH-])C(=O)O.CCOC(=O)NCCCCC([NH-])C(=O)O.[Cu+2]` (stereo not given), the survivor count under setting [1] is 2 of 6.

Take `CC(=O)/C(=N/O)C(C)=NCc1ccccc1`: the survivor count reads like this: under setting [13], 6 of 6; under setting [8], 6 of 6.

Turning to `NC(N)=N/N=C1\C/C(=N\N=C(N)N)c2cc3ccccc3cc21`, the survivor count reads like this: (dose: 200.0 mg/kg/injection, schedule: Q01DX001 (ip), vehicle: saline with Tween-80) 2 of 6; (dose: 200.0 mg/kg/injection, schedule: Q01DX001 (ip), vehicle: saline) 0 of 6; (dose: 400.0 mg/kg/injection, schedule: Q01DX001 (ip), vehicle: saline) 0 of 6.

Regarding `C[O][Sn]([CH3])([CH3])[O][Sn]([CH3])([CH3])[Cl]`, the survivor count reads like this: under setting [14], 0 of 6; under setting [15], 0 of 6; under setting [16], 0 of 6.

Take `CCCCCCCCC[N+](C)([O-])CCCCCC[N+](C)([O-])CCCCCCCCC` (stereo not given): the survivor count under setting [14] is 1 of 6, the survivor count under setting [15] is on record as 0 of 6 and the survivor count under setting [16] is recorded as 0 of 5.

Regarding `CN(C)c1ccc2ncc(C(N)=O)c(N)c2c1`, the survivor count reads like this: (dose: 60.0 mg/kg/injection, schedule: Q01DX005 (ip), vehicle: Klucel (hydroxypropylcellulose) (HPC)) 2 of 6; (dose: 120.0 mg/kg/injection, schedule: Q01DX005 (ip), vehicle: Klucel (hydroxypropylcellulose) (HPC)) 0 of 6; under setting [10], 0 of 6.

With `COc1c(I)c2c(c(OC)c1OC)-c1ccc(OC)c(=O)cc1C(NC(C)=O)CC2` (stereo not given), the T/C is, setting by setting: (dose: 1.56 mg/kg/injection, schedule: Q01DX009 (ip), vehicle: Klucel (hydroxypropylcellulose) (HPC)) 135 and 137 % of control; (dose: 3.12 mg/kg/injection, schedule: Q01DX009 (ip), vehicle: Klucel (hydroxypropylcellulose) (HPC)) 142 and 147 % of control; under setting [6], 148 % of control. Besides, the survivor count was 5 of 5 under setting [7]; 1 of 5 and 5 of 5 under setting [13].

As to `CCC1(c2ccc(N)cc2)CCC(=O)NC1=O` (stereo not given), the survivor count under setting [9] is 3 of 6.
